No constants are given. Whether binding was seen depends on the method and setting. Some results given as binding are weak or reduced against the parent protein; the word gives no strength.
Tests used:
[1] = target: human CD19 expressed on the cell surface (native format) (human) (UniProt P15391); assay: flow cytometry, phage clone then anti-M13 mouse antibody then PE-labeled anti-mouse antibody; CD19+ Raji, CD19- Raji-CD19 k.o. and Jurkat; MFI
[2] = target: human CD19 expressed on the cell surface (native format) (human) (UniProt P15391); assay: flow cytometry with scFv phage on Raji, Raji-CD19 k.o. and Jurkat cells
[3] = target: human CD19 expressed on the cell surface (native format) (human) (UniProt P15391); assay: flow cytometry, phage clone on CD19+ Raji and Jeko-1, CD19- Raji-CD19 k.o. and Jurkat; MFI
[4] = target: human CD19 expressed on the cell surface (native format) (human) (UniProt P15391); assay: flow cytometry, phage clone on Raji cells, alone or on cells pre-incubated with the parental clone 6 bi-specific antibody as competitor; anti-M13 mouse antibody, PE-conjugated anti-mouse antibody; MFI
[5] = target: human CD19 expressed on the cell surface (native format) (human) (UniProt P15391); assay: flow cytometry, phage clone on Raji cells, alone or on cells pre-incubated with the parental clone 5 bi-specific antibody as competitor; anti-M13 mouse antibody, PE-conjugated anti-mouse antibody; MFI
[6] = target: human CD19 expressed on the cell surface (native format) (human) (UniProt P15391); assay: competition cell-binding: phage clone on Raji cells pre-incubated with the parental bi-specific antibody clone

Measured: binding

B1: anti-human CD19 scFv phage clone 6 (scFv)
scFv: QAVLTQPPSVSEAPRQRVTISCSGSSSNVGNNAVNWYQQVPGKAPKLLIYYDDLLSSGVSDRFSGSKSGTSASLAISGLQSEDEADYYCAAWDDSLNGPVFGGGTKLTVLGSRGGGGSGGGGSGGGGSLEMAEVQLVQSGAEVKKPGESLKISCKGSGYSFTSYWIGWVRQMPGKGLEWMGIIYPGDSDTRYSPSFQGQVTISADKSISTAYLQWSSLKASDTAMYYCARWSSTWDSMYMDYWGQGTLVTVSS
binds: [1] | [2] | [3] | [4]

B2: anti-human CD19 scFv phage clone 7 (scFv)
scFv: QPVLTQPPSVSVAPGKTARITCGGNNIGSESVHWYQQKPGQAPMVVIYYDSNRPSGIPERFSGSNSGNTATLTVSRVEAEDEADYYCQVWNSSSDHRGVFGGGTKLTVLGSRGGGGSGGGGSGGGGSLEMAEVQLVQSGAEVKKPGESLRISCKGSGYSFTSYWIGWVRQMPGKGLEWMGIIYPGDSDTRYSPSFQGQVTISADKSISTAYLQWSSLKASDTAMYYCARVTYSMDSYYFDSWGQGTLVTVSS
binds: [1] | [2]

B3: variant anti-human CD19 scFv phage clone 5-3 (scFv)
scFv: LPVLTQPPSVSVAPGKTARITCGGNNIGSKSVHWYQQKPGQAPVLVVYDDSNRPSGIPERFSGSNSGNTATLTISRVEAGDEADYYCQVWDSSSEYVVFGGGTKLTVLGSRGGGGSGGGGSGGGGSLEMAEVQLVQSGAEVKKPGESLKISCKGSGYSFTSYWIGWVRQMPGKGLEWMGIIYPGDSDTRYSPSFQGQVTISADKSISTAYLQWSSLKASDTAMYYCARQVWGWQGGMYPRSNWWYNMDSWGQGTLVTVSS
binds: [5] | [6] | [3]

— patent publication US20190315859A1
